The target in test [1] is HERC2 protein fused with the Flag epitope (Flag-HERC2) (human) (UniProt O95714). The experiment in a line: pull-down; Lysates (NP40 buffer) of HEK293T cells transfected with Flag-HERC2 or Flag-CTL, incubated with DYKDDDDK Fab-Trap agarose 2 h at 4 °C, five washes, immunoblot of retained endogenous proteins; cells untreated, or 500 µM H2O2 for 3 or 6 h (less USP20 retained). In general terms: A western blot detects proteins with antibodies after separation by electrophoresis.

Protein sequences, listed by entry. Tags and fused reporters are not part of them.
UniProt O95714: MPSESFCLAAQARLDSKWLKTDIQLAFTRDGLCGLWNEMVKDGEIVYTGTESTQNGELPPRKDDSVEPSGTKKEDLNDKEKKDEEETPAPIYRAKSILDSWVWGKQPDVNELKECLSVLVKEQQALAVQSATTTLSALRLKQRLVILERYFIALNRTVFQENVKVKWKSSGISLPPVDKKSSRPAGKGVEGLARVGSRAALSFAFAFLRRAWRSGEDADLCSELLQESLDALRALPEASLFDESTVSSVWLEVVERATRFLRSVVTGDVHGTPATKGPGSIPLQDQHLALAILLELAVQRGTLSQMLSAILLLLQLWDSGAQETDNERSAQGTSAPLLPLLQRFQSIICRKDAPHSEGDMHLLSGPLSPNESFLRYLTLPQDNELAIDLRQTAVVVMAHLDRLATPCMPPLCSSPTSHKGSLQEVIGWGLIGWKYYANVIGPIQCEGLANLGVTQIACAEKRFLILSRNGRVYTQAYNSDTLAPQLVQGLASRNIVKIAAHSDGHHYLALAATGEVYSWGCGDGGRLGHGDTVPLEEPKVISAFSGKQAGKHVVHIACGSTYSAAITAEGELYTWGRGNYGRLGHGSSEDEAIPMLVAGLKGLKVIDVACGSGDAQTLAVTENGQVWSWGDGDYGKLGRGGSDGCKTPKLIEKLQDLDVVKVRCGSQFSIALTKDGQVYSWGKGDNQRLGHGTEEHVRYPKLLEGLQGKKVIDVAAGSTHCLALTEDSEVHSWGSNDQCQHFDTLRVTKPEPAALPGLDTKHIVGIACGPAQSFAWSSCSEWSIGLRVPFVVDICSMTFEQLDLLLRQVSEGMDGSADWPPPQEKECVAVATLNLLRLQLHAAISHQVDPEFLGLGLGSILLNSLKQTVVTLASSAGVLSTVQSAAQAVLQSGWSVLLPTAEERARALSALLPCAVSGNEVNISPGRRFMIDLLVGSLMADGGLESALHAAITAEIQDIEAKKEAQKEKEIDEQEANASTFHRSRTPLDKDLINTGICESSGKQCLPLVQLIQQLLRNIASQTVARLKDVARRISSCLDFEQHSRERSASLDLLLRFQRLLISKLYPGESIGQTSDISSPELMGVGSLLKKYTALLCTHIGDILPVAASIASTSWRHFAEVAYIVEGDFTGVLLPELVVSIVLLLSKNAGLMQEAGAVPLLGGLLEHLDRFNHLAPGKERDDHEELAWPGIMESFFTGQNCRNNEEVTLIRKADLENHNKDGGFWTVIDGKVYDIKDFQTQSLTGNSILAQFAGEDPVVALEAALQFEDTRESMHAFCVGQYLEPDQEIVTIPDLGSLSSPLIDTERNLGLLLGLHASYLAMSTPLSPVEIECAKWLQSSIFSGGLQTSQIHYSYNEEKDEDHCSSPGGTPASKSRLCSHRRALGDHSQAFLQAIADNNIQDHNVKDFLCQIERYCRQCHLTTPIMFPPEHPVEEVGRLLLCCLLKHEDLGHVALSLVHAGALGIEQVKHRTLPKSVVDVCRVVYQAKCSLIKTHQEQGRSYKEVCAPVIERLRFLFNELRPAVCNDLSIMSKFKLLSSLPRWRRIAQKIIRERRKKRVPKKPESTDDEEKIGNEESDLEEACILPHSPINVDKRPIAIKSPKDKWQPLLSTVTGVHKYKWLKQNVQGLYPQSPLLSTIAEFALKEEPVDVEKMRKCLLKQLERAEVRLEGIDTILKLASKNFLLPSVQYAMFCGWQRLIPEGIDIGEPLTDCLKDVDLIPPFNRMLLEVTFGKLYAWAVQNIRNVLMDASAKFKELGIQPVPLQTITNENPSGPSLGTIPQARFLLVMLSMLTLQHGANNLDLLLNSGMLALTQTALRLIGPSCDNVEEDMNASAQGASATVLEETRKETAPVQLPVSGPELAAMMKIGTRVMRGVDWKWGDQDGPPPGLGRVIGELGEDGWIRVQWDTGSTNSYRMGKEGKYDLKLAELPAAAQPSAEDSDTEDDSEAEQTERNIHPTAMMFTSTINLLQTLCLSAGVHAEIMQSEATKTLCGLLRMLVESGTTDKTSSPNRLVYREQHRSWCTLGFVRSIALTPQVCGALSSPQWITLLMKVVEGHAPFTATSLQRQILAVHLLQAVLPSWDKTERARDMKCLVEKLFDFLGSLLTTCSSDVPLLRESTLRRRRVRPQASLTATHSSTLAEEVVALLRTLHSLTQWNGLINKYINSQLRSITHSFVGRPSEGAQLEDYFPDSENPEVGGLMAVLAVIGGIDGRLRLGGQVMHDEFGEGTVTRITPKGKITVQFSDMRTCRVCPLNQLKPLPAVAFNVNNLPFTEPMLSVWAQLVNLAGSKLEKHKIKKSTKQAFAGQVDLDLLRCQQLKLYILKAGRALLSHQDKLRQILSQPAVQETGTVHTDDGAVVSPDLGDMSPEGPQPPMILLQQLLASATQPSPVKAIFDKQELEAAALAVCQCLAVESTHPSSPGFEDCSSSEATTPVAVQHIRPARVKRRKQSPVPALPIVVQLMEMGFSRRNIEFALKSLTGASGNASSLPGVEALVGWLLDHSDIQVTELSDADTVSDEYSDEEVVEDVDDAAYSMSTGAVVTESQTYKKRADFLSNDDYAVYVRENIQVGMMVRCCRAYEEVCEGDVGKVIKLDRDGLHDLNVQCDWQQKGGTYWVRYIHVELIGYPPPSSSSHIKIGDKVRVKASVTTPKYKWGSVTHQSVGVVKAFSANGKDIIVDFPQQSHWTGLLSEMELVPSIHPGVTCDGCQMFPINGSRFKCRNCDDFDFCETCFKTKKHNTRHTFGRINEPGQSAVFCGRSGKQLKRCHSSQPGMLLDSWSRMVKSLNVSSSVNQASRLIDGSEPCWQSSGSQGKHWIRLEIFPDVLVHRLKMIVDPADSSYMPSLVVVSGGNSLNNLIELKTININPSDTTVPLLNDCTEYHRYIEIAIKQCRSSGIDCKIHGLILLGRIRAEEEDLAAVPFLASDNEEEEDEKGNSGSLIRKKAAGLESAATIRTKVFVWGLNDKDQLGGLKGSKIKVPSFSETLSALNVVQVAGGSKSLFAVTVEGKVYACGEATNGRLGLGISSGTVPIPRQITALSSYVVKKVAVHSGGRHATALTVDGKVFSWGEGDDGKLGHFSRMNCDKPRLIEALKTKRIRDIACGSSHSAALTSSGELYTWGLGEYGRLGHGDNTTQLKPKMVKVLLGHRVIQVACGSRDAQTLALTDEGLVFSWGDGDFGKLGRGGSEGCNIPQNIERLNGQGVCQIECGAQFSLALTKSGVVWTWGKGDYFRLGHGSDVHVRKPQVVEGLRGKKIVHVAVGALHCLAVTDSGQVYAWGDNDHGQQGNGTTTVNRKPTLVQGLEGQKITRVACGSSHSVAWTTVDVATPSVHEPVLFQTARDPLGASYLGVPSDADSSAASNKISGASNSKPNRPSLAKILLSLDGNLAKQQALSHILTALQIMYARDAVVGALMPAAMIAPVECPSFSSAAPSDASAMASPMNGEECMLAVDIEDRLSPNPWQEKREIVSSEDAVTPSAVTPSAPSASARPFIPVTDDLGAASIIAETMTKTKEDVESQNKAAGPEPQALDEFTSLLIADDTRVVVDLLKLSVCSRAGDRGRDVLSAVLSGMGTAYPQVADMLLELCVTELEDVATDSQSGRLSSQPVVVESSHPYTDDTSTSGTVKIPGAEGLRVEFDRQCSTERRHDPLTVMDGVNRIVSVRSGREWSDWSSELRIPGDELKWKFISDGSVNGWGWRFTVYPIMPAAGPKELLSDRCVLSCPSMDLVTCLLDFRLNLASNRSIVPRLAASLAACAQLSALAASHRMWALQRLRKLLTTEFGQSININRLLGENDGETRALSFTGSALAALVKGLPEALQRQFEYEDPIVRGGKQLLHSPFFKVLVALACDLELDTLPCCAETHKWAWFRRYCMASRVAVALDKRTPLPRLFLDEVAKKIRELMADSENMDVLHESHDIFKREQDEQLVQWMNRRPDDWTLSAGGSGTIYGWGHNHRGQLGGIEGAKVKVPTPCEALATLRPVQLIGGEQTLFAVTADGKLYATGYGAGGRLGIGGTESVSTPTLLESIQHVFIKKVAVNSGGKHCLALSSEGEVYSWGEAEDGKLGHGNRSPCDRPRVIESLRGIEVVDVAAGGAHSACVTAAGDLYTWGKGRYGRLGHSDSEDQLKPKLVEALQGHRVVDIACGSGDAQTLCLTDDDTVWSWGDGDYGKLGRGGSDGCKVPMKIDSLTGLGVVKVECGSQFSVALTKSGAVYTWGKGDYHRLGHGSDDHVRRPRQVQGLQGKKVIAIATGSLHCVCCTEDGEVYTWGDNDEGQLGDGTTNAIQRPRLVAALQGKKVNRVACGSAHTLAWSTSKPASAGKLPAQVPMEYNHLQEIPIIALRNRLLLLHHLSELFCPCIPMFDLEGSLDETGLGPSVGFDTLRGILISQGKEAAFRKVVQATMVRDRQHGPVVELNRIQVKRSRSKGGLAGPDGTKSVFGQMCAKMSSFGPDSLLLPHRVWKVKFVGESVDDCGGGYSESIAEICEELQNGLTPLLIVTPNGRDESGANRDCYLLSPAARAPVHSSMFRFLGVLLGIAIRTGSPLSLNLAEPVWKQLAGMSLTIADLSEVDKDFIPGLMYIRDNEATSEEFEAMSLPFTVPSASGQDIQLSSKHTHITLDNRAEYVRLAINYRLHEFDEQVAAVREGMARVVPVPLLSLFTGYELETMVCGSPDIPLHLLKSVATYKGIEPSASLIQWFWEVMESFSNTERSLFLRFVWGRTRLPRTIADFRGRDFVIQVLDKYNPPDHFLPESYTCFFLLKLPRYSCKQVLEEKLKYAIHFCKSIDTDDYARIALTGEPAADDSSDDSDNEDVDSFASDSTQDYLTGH

Test [2] has the same target. The experiment in a line: pull-down; As a1 but in U2OS cells transfected with Flag-HERC2 or Flag-CTL; DYKDDDDK Fab-Trap agarose, immunoblot.

These are yes or no findings as the source states them, for the method shown. Binding seen in cells or lysates may run through a third protein. Some binding calls cover weakened binding; strength is not graded here.

Consider “deubiquitylating enzyme USP20 (from UniProt Q9Y2K6 1-914)”, for which the binding result in test [1] and in test [2] was “binds” each time.

The values above are taken from PMC10991529.
